Assay results published in publication PMC6052341, “Phosphorylation of FtsZ and FtsA by a DNA Damage-Responsive Ser/Thr Protein Kinase Affects Their Functional Interactions in Deinococcus radiodurans” (mSphere, 2018).
These are yes or no findings as the source states them, for the method shown. For part of these data: In cells and extracts the contact can be indirect. Some entries that bind do so weakly or less than the wild type. Tags and fused reporters may be left off the sequences shown.

Tests used:
[1] = biological target: T1, FtsZ-C25, FtsZ of Deinococcus radiodurans fused to the T25 domain of CyaA, in E. coli BTH101 (Deinococcus radiodurans) (UniProt Q9RWN5); test: two-hybrid; bacterial two-hybrid (BACTH) in E. coli BTH101 at 30°C, FtsA-C18 and FtsZ-C25, with RqkA (pVHSRqk) or vector; white-blue colonies and β-galactosidase activity in liquid culture
T1 sequence: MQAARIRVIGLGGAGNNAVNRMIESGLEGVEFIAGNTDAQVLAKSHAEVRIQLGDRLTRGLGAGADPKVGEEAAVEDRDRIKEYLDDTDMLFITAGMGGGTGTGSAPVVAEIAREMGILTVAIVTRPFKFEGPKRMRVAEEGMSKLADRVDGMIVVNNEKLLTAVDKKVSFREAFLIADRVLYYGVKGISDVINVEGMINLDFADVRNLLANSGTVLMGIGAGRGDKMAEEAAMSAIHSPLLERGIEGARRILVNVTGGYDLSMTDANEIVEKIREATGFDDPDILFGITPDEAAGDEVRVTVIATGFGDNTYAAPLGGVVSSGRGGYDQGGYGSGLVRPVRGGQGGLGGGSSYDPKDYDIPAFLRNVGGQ

[2] = biological target: T1, FtsZ-C25, FtsZ of Deinococcus radiodurans fused to the T25 domain of CyaA, in E. coli BTH101 (Deinococcus radiodurans); test: co-IP; cell-free extract (RIPA buffer) of E. coli BTH101 coexpressing FtsA-C18 and FtsZ-C25 with the vector pVHS559 (RqkA absent); precipitated with T25 antibodies, blotted with T18 antibodies
[3] = biological target: T1, FtsZ-C25, FtsZ of Deinococcus radiodurans fused to the T25 domain of CyaA, in E. coli BTH101 (Deinococcus radiodurans); test: co-IP; cell-free extract (RIPA buffer) of E. coli BTH101 coexpressing FtsA-C18 and FtsZ-C25 with RqkA (pVHSRqk); precipitated with T25 antibodies, blotted with T18 antibodies

binding [1]: binds
binding [2]: binds
binding [3]: binds weakly
B1: FtsA of Deinococcus radiodurans, purified recombinant (natural protein, UniProt Q9RWN6 1-517, looked up)
chain: MRENSIIVGLDIGTTKITTVIGEVAPDGTIDIIGEGSVPSEGMKRGSVINLERATQAIKQSLHAAERVSGVRAWNVFVSVGGNHTKAMTSHGLAAIRRQQEISPPDVERAIENARAVPLDPSLEILHTIPQEYVVDGQEGIKNPVGMHGVRLEVDVHIVAGSAGPLLNLRRCVQEAGLQIEGFVLHSLASGLATLDHSEQNQTTVVVDMGGGTTDIGVFKRGNLAHSASIPIGGDHVTADLAQILKIPMEEAEKVKRHYGAAIPELADQELTLEITTASGATHAISAYELSRVIRPRVSEIYGLIRDEIDQALGPVELVAQSVVLTGGGAQLPGAVDLARERFRLPTRLGRPRGIHGLSDIVGDPAHACSVGMVLYGITQDGRVPSGLDDGGDPAGYTEYAGRHDQGYPQGGYPAPGYLTAPTGGTHVAPQGTPGSYPGPGYVVSGGQSQGQPYPPMPNTGSHSAGVPSMSGPVIGGQVVGVDPHAQVLVDGQPQRPPSGPKVSLMDRVRSLFRDWF
